Source: patent US20160051514A1, “METHODS FOR TREATMENT OF CARDIOMYOPATHY” (THE BRIGHAM AND WOMEN'S HOSPITAL, INC., priority 2013, published 2016)

Test system: IKr
Assay: IKr tail current in zebrafish ventricular myocytes
Assay type: cell-based
Description: The outward K^+ current kKr was measured according to the protocol of Nemtsas et al. using identical extracellular and pipette solutions.” In brief, IK, was activated by clamping the membrane potential from a holding potential of −50 mV for 1000 ms to different levels in 5 mV steps. IKr was obtained as the tail current upon repolarization to −50 mV after the 1000 ms conditioning steps. Contaminating ICaL was inhibited by nisoldipine (1 μM). Addition of the specific IKr blocker E4031 identified the tail current as IKr.^17
The outward K+ current IKr was measured according to the protocol of Nemtsas et al. (34) using identical extracellular and pipette solutions (see on-line supplement). In brief, IKr was activated by clamping the membrane potential from a holding potential of −50 mV for 1000 ms to different levels in 5 mV steps. IKr was obtained as the tail current upon repolarization to −50 mV after the 1000 ms conditioning steps. Interfering ICa,L was inhibited by nisoldipine (1 μM). Addition of the specific IKr blocker E4031 identified the tail current as IKr (35).
Measurements of IKr: Composition of extracellular solution (mmoles/Liter): 120 Na+, 5.4 K+, 0.5 Ca2+, 2 Mg2+, 130.4 Cl—, 10 HEPES, 10 glucose at pH=7.3 (adjusted with KOH), 1 mol/1 Nisoldipine. […]

## Cc1cccc(CCN2CCC(C(=O)c3ccc(NS(C)(=O)=O)cc3)CC2)n1 [E4031]
  Inhibition of IKr tail current: complete inhibition
